# Laboratory results as given in paper PMC2894052.
# Sequences of proteins named here, by UniProt entry; tags and fusion partners are left off.
# UniProt P13864: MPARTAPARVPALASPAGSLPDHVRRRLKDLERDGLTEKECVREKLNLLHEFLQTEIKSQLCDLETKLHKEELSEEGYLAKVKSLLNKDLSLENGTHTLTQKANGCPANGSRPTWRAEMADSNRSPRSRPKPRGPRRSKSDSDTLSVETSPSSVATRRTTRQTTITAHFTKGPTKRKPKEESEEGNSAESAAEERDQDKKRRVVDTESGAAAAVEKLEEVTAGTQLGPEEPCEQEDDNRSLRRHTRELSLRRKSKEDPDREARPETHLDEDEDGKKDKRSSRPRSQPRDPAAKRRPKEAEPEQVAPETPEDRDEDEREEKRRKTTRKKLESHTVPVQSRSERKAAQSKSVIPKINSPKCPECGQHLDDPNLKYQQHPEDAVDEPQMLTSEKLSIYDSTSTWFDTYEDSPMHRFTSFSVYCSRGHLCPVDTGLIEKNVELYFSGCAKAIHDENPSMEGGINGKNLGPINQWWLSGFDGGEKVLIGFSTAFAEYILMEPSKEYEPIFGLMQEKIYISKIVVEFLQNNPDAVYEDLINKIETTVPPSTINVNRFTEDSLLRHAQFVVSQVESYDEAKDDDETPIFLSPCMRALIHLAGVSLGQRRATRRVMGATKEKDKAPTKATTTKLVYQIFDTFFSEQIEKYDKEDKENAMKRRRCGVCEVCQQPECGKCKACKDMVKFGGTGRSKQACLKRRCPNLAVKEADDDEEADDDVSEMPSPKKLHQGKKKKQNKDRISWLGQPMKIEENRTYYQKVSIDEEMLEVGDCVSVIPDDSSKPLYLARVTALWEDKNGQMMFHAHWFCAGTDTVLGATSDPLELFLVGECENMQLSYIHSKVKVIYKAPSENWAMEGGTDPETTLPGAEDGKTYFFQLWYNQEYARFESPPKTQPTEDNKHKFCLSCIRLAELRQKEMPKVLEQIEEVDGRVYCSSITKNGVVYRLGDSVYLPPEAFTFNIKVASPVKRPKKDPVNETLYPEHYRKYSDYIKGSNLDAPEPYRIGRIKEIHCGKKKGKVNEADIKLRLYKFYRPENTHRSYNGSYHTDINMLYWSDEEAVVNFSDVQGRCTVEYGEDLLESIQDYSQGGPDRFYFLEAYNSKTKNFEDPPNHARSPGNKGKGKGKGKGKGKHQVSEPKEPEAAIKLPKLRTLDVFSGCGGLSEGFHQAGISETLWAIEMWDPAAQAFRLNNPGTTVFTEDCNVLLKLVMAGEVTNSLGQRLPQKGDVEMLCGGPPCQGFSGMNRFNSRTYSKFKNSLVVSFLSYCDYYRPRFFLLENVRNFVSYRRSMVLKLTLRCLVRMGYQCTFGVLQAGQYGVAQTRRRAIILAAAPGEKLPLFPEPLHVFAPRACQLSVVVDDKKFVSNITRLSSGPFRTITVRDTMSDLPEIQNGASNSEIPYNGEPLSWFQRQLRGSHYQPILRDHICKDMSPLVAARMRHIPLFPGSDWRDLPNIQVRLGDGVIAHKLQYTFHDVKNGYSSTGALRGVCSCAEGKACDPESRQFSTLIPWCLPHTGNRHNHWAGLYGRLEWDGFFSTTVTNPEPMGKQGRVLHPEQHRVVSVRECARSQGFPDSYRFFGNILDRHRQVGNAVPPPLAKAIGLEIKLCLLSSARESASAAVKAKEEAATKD
# UniProt P17918: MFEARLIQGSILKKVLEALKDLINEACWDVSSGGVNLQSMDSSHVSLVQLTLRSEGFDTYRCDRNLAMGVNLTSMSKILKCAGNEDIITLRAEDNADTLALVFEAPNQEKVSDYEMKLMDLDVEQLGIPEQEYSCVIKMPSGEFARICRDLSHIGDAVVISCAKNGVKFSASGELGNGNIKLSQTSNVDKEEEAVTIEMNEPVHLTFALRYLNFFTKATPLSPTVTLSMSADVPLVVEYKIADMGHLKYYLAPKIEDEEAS
# No constants are given. Whether binding was seen depends on the method and setting. In cells and extracts the contact can be indirect. Some binding calls cover weakened binding; strength is not graded here.
# B1: UHRF1, endogenous in Ntv-a glial precursor cells (protein, UniProt Q8VDF2 1-782)
# chain: MWIQVRTMDGKETHTVNSLSRLTKVQELRKKIEEVFHVEPQLQRLFYRGKQMEDGHTLFDYDVRLNDTIQLLVRQSLALPLSTKERDSELSDSDSGYGVGHSESDKSSTHGEGAAEADDKTVWEDTDLGLYKVNEYVDVRDNIFGAWFEAQVVQVQKRALSEDEPCSSSAVKTSEDDIMYHVKYDDYPEHGVDIVKAKNVRARARTVIPWENLEVGQVVMANYNVDYPRKRGFWYDVEICRKRQTRTARELYGNIRLLNDSQLNNCRIMFVDEVLMIELPKERRPLIASPSQPPPALRNTGKSGPSCRFCKDDENKPCRKCACHVCGGREAPEKQLLCDECDMAFHLYCLKPPLTSVPPEPEWYCPSCRTDSSEVVQAGEKLKESKKKAKMASATSSSRRDWGKGMACVGRTTECTIVPANHFGPIPGVPVGTMWRFRVQVSESGVHRPHVAGIHGRSNDGAYSLVLAGGYEDDVDNGNYFTYTGSGGRDLSGNKRTAGQSSDQKLTNNNRALALNCHSPINEKGAEAEDWRQGKPVRVVRNMKGGKHSKYAPAEGNRYDGIYKVVKYWPERGKSGFLVWRYLLRRDDTEPEPWTREGKDRTRQLGLTMQYPEGYLEALANKEKSRKRPAKALEQGPSSSKTGKSKQKSTGPTLSSPRASKKSKLEPYTLSEQQANLIKEDKGNAKLWDDVLTSLQDGPYQIFLSKVKEAFQCICCQELVFRPVTTVCQHNVCKDCLDRSFRAQVFSCPACRFELDHSSPTRVNQPLQTILNQLFPGYGSGR
# Legend:
# [1] = biological target: Dnmt1, endogenous in Ntv-a glial precursor cells (mouse (endogenous in Ntv-a)) (UniProt P13864); test: co-IP; Dnmt1-PCNA-UHRF1 interactions in Ntv-a and Ntv-a/PDGF cells, without or with Akt and PKC inhibitors; the method is not named for this panel
# [2] = biological target: Dnmt1, endogenous in Ntv-a glial precursor cells (mouse (endogenous in Ntv-a)) (UniProt P13864); test: co-IP; Dnmt1-immunoprecipitation from Astro#40 and Ntv-a cells nucleofected with pCt or with pUP (expression of the UP chimera as competitor)
# [3] = biological target: Dnmt1, endogenous in Ntv-a glial precursor cells (mouse (endogenous in Ntv-a)) (UniProt P13864); test: proximity ligation; P-LISA of Dnmt1 and PCNA in cells nucleofected with pCt or with pUP (expression of the UP chimera as competitor); 100 cells of three independent experiments
Molecule,binding [1],binding [2],binding [3]
"PCNA, endogenous in Ntv-a glial precursor cells (from UniProt P17918 1-261)",binds,binds,binds
B1,binds,binds,
